Experimental data reported in PMC12362812.
No constants are given. Whether binding was seen depends on the method and setting. Binding seen in cells or lysates may run through a third protein. Some results given as binding are weak or reduced against the parent protein; the word gives no strength.

Assays:
[1] = molecular target: β‐catenin, wild type, in ESCC cells (human) (UniProt P35222); assay: co-IP; lysates of transfected ESCC cells, precleared with IgG and protein A/G Sepharose beads; primary antibody overnight at 4 °C, protein A/G Sepharose beads 4 h, washed with IP lysis buffer, Western blot; for β‐catenin and NUP93 with ectopic LIMK1 or CDK5 (wild type or kinase-dead)
[2] = molecular target: T1, LIMK1‐D460A, catalytically inactive mutant, overexpressed in ESCC cells (human) (UniProt P53667); assay: as above
T1 sequence: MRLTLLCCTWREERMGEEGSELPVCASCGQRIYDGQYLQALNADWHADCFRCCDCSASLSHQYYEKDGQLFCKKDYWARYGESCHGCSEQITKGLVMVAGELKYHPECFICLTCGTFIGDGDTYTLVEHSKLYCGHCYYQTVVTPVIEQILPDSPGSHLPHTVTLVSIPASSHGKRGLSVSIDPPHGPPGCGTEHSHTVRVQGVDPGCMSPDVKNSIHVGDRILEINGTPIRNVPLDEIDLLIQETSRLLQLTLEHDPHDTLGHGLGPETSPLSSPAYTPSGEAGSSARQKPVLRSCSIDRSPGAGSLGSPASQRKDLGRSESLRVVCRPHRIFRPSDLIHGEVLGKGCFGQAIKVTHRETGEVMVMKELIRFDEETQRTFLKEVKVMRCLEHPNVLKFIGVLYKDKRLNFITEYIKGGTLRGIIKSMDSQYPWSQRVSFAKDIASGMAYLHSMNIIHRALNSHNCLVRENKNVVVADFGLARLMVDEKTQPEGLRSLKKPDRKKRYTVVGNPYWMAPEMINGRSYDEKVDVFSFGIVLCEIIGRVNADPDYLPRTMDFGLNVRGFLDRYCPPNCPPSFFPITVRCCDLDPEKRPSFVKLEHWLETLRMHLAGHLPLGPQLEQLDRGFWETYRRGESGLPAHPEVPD

Row | binding [1] | binding [2] | Substance
1 | binds | – | Cyclin‐dependent kinase 5 (CDK5), wild type, overexpressed in ESCC cells (from UniProt Q00535 1-292) (enzyme)
2 | – | binds | β‐catenin, wild type, in ESCC cells (from UniProt P35222 1-781)
